Some of the results follow.
Key:
Assay in all cases: glycan array binding signal (z-score within array); higher = stronger binding
Settings in all cases: glycan notation: IUPAC condensed, linker removed
[1] = biological target: Gal(b1-4)GlcNAc(b1-3)Gal(b1-4)GlcNAc(b1-2)[Gal(b1-4)GlcNAc(b1-3)Gal(b1-4)GlcNAc(b1-6)]Man(a1-6)[Gal(b1-4)GlcNAc(b1-3)Gal(b1-4)GlcNAc(b1-2)Man(a1-3)]Man(b1-4)GlcNAc(b1-4)[Fuc(a1-6)]GlcNAc
Procedure, shortened: (§1)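 Glycan array data came from 3228 arrays in the Consortium for Functional Glycomics database, and only arrays with an available protein sequence were kept. Glycan names were put into IUPAC-condensed notation, and columns mapping to the same glycan were averaged. The binding signal is a within-array Z-score, averaged across arrays of one protein sequence run at different concentrations or buffers and across linkers. A negative Z-score can be read as non-binding.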

[2] = biological target: Gal(b1-4)GlcNAc(b1-3)Gal(b1-4)GlcNAc(b1-3)Gal(b1-4)GlcNAc
Procedure, shortened: as §1

[3] = biological target: Gal(b1-4)GlcNAc(b1-3)Gal(b1-4)GlcNAc(b1-3)Gal(b1-4)GlcNAc(b1-2)Man(a1-3)[Gal(b1-4)GlcNAc(b1-3)Gal(b1-4)GlcNAc(b1-3)Gal(b1-4)GlcNAc(b1-2)Man(a1-6)]Man(b1-4)GlcNAc(b1-4)GlcNAc
Procedure, shortened: as §1

[4] = biological target: Gal(b1-4)GlcNAc(b1-3)Gal(b1-4)GlcNAc(b1-3)Gal(b1-4)GlcNAc(b1-2)Man(a1-3)[Gal(b1-4)GlcNAc(b1-3)Gal(b1-4)GlcNAc(b1-3)Gal(b1-4)GlcNAc(b1-2)Man(a1-6)]Man(b1-4)GlcNAc(b1-4)[Fuc(a1-6)]GlcNAc
Procedure, shortened: as §1

[5] = biological target: Gal(b1-4)GlcNAc(b1-3)Gal(b1-4)GlcNAc(b1-3)Gal(b1-4)GlcNAc(b1-2)[Gal(b1-4)GlcNAc(b1-3)Gal(b1-4)GlcNAc(b1-3)Gal(b1-4)GlcNAc(b1-6)]Man(a1-6)[Gal(b1-4)GlcNAc(b1-3)Gal(b1-4)GlcNAc(b1-3)Gal(b1-4)GlcNAc(b1-2)Man(a1-3)]Man(b1-4)GlcNAc(b1-4)[Fuc(a1-6)]GlcNAc
Procedure, shortened: as §1

[6] = biological target: Gal(b1-4)GlcNAc(b1-3)Gal(b1-4)GlcNAc(b1-3)Gal(b1-4)GlcNAc(b1-3)Gal(b1-4)GlcNAc(b1-2)Man(a1-3)[Gal(b1-4)GlcNAc(b1-3)Gal(b1-4)GlcNAc(b1-3)Gal(b1-4)GlcNAc(b1-3)Gal(b1-4)GlcNAc(b1-2)Man(a1-6)]Man(b1-4)GlcNAc(b1-4)GlcNAc
Procedure, shortened: as §1

[7] = biological target: Gal(b1-4)GlcNAc(b1-3)Gal(b1-4)GlcNAc(b1-3)Gal(b1-4)GlcNAc(b1-3)Gal(b1-4)GlcNAc(b1-2)Man(a1-3)[Gal(b1-4)GlcNAc(b1-3)Gal(b1-4)GlcNAc(b1-3)Gal(b1-4)GlcNAc(b1-3)Gal(b1-4)GlcNAc(b1-2)Man(a1-6)]Man(b1-4)GlcNAc(b1-4)[Fuc(a1-6)]GlcNAc
Procedure, shortened: as §1

[8] = biological target: Gal(b1-4)GlcNAc(b1-3)Gal(b1-4)GlcNAc(b1-3)Gal(b1-4)GlcNAc(b1-3)Gal(b1-4)GlcNAc(b1-2)[Gal(b1-4)GlcNAc(b1-3)Gal(b1-4)GlcNAc(b1-3)Gal(b1-4)GlcNAc(b1-3)Gal(b1-4)GlcNAc(b1-6)]Man(a1-6)[Gal(b1-4)GlcNAc(b1-3)Gal(b1-4)GlcNAc(b1-3)Gal(b1-4)GlcNAc(b1-3)Gal(b1-4)GlcNAc(b1-2)Man(a1-3)]Man(b1-4)GlcNAc(b1-4)[Fuc(a1-6)]GlcNAc
Procedure, shortened: as §1

[9] = biological target: Gal(b1-4)GlcNAc(b1-3)Gal(b1-4)GlcNAc(b1-3)Gal(b1-4)GlcNAc(b1-3)Gal(b1-4)GlcNAc(b1-3)Gal(b1-4)GlcNAc(b1-2)Man(a1-3)[Gal(b1-4)GlcNAc(b1-3)Gal(b1-4)GlcNAc(b1-3)Gal(b1-4)GlcNAc(b1-3)Gal(b1-4)GlcNAc(b1-3)Gal(b1-4)GlcNAc(b1-2)Man(a1-6)]Man(b1-4)GlcNAc(b1-4)GlcNAc
Procedure, shortened: as §1

[10] = biological target: Gal(b1-4)GlcNAc(b1-3)Gal(b1-4)GlcNAc(b1-3)Gal(b1-4)GlcNAc(b1-3)Gal(b1-4)GlcNAc(b1-3)Gal(b1-4)GlcNAc(b1-2)Man(a1-3)[Gal(b1-4)GlcNAc(b1-3)Gal(b1-4)GlcNAc(b1-3)Gal(b1-4)GlcNAc(b1-3)Gal(b1-4)GlcNAc(b1-3)Gal(b1-4)GlcNAc(b1-2)Man(a1-6)]Man(b1-4)GlcNAc(b1-4)[Fuc(a1-6)]GlcNAc
Procedure, shortened: as §1

[11] = biological target: Gal(b1-4)GlcNAc(b1-3)Gal(b1-4)GlcNAc(b1-3)Gal(b1-4)GlcNAc(b1-3)Gal(b1-4)GlcNAc(b1-3)Gal(b1-4)GlcNAc(b1-2)[Gal(b1-4)GlcNAc(b1-3)Gal(b1-4)GlcNAc(b1-3)Gal(b1-4)GlcNAc(b1-3)Gal(b1-4)GlcNAc(b1-3)Gal(b1-4)GlcNAc(b1-6)]Man(a1-6)[Gal(b1-4)GlcNAc(b1-3)Gal(b1-4)GlcNAc(b1-3)Gal(b1-4)GlcNAc(b1-3)Gal(b1-4)GlcNAc(b1-3)Gal(b1-4)GlcNAc(b1-2)Man(a1-3)]Man(b1-4)GlcNAc(b1-4)[Fuc(a1-6)]GlcNAc
Procedure, shortened: as §1

[12] = biological target: Gal(b1-4)GlcNAc(b1-3)Gal(b1-4)GlcNAc(b1-3)Gal(b1-4)GlcNAc(b1-3)Gal(b1-4)GlcNAc(b1-3)Gal(b1-4)GlcNAc(b1-3)Gal(b1-4)GlcNAc(b1-2)Man(a1-3)[Gal(b1-4)GlcNAc(b1-3)Gal(b1-4)GlcNAc(b1-3)Gal(b1-4)GlcNAc(b1-3)Gal(b1-4)GlcNAc(b1-3)Gal(b1-4)GlcNAc(b1-3)Gal(b1-4)GlcNAc(b1-2)Man(a1-6)]Man(b1-4)GlcNAc(b1-4)GlcNAc
Procedure, shortened: as §1

[13] = biological target: Gal(b1-4)GlcNAc(b1-3)Gal(b1-4)GlcNAc(b1-3)GalNAc
Procedure, shortened: as §1

[14] = biological target: Gal(b1-4)GlcNAc(b1-3)Gal(b1-4)GlcNAc(b1-3)[Gal(b1-4)GlcNAc(b1-3)Gal(b1-4)GlcNAc(b1-6)]GalNAc
Procedure, shortened: as §1

[15] = biological target: Gal(b1-4)GlcNAc(b1-3)Gal(b1-4)GlcNAc(b1-6)[Gal(b1-3)]GalNAc
Procedure, shortened: as §1

[16] = biological target: Gal(b1-4)GlcNAc(b1-3)Gal(b1-4)[Fuc(a1-3)]GlcNAc(b1-3)Gal(b1-4)[Fuc(a1-3)]GlcNAc
Procedure, shortened: as §1

[17] = biological target: Gal(b1-4)GlcNAc(b1-3)GalNAc
Procedure, shortened: as §1

[18] = biological target: Gal(b1-4)GlcNAc(b1-3)[Fuc(a1-3)GlcNAc(b1-6)]Gal(b1-4)Glc
Procedure, shortened: as §1

[19] = biological target: Gal(b1-4)GlcNAc(b1-3)[Gal(b1-4)GlcNAc(b1-6)]Gal(b1-4)GlcNAc
Procedure, shortened: as §1

[20] = biological target: Gal(b1-4)GlcNAc(b1-3)[GlcNAc(b1-6)]Gal(b1-4)GlcNAc
Procedure, shortened: as §1

[21] = biological target: Gal(b1-4)GlcNAc(b1-6)Gal(b1-4)GlcNAc
Procedure, shortened: as §1

[22] = biological target: Gal(b1-4)GlcNAc(b1-6)GalNAc
Procedure, shortened: as §1

[23] = biological target: Gal(b1-4)GlcNAc(b1-6)[Gal(b1-3)]GalNAc
Procedure, shortened: as §1

[24] = biological target: Gal(b1-4)GlcNAc(b1-6)[Gal(b1-4)GlcNAc(b1-3)]GalNAc
Procedure, shortened: as §1

Gal(b1-4)GlcNAc6P = biological target: Gal(b1-4)GlcNAc6P
Procedure, shortened: as §1

Gal(b1-6)Gal = biological target: Gal(b1-6)Gal
Procedure, shortened: as §1

Gal3S(b1-3)GalNAc = biological target: Gal3S(b1-3)GalNAc
Procedure, shortened: as §1

Gal3S(b1-3)GlcNAc = biological target: Gal3S(b1-3)GlcNAc
Procedure, shortened: as §1

[25] = biological target: Gal3S(b1-3)[Fuc(a1-4)]GlcNAc
Procedure, shortened: as §1

Gal3S(b1-4)Glc = biological target: Gal3S(b1-4)Glc
Procedure, shortened: as §1

Gal3S(b1-4)Glc6S = biological target: Gal3S(b1-4)Glc6S
Procedure, shortened: as §1

Gal3S(b1-4)GlcNAc = biological target: Gal3S(b1-4)GlcNAc
Procedure, shortened: as §1

[26] = biological target: Gal3S(b1-4)[Fuc(a1-3)]Glc6S
Procedure, shortened: as §1

[27] = biological target: Gal3S(b1-4)[Fuc(a1-3)]GlcNAc
Procedure, shortened: as §1

[28] = biological target: Gal3S(b1-4)[Fuc(a1-3)]GlcNAc6S
Procedure, shortened: as §1

Gal3S4S(b1-4)GlcNAc = biological target: Gal3S4S(b1-4)GlcNAc
Procedure, shortened: as §1

Gal3S6S(b1-4)GlcNAc = biological target: Gal3S6S(b1-4)GlcNAc
Procedure, shortened: as §1

B1: FliC (Clostridium difficile) (protein)
chain: MRVNTNVSALIANNQMGRNVNGQSKSMEKLSSGVRIKRAADDAAGLAISEKMRAQIKGLDQAGRNVQDGISVVQTAEGSLEETGNILQRMRTLSLQSANEINNTEEREKIADELTQLKDEIERISSSTEFNGKKLLDGTSSTIRLQVGASYGTNVSGTSNNNNEIKIQLVNTASIMASAGITTASIGSMKAGGTTGTDAAKTMVSSLDAALKSLNSSRAKLGAQQNRLESTQNNLNNTLENVTAAESRIRDTDVASEMVNLSKMNILVQASQSMLAQANQQPQGVLQLLG
glycan array binding signal (z-score) [1]: 0.578
glycan array binding signal (z-score) [2]: 0.159
glycan array binding signal (z-score) [3]: 2.15
glycan array binding signal (z-score) [4]: 0.556
glycan array binding signal (z-score) [5]: 1.78
glycan array binding signal (z-score) [6]: 1.3
glycan array binding signal (z-score) [7]: 0.078
glycan array binding signal (z-score) [8]: 0.488
glycan array binding signal (z-score) [9]: -1.06
glycan array binding signal (z-score) [10]: 0.234
glycan array binding signal (z-score) [11]: 0.288
glycan array binding signal (z-score) [12]: 0.205
glycan array binding signal (z-score) [13]: -0.709
glycan array binding signal (z-score) [14]: 2.33
glycan array binding signal (z-score) [15]: 0.062
glycan array binding signal (z-score) [16]: 1.17
glycan array binding signal (z-score) [17]: -0.483
glycan array binding signal (z-score) [18]: -0.626
glycan array binding signal (z-score) [19]: -0.306
glycan array binding signal (z-score) [20]: -0.24
glycan array binding signal (z-score) [21]: -0.574
glycan array binding signal (z-score) [22]: 0.139
glycan array binding signal (z-score) [23]: -0.23
glycan array binding signal (z-score) [24]: -0.331
glycan array binding signal (z-score) (Gal(b1-4)GlcNAc6P): -0.843
glycan array binding signal (z-score) (Gal(b1-6)Gal): 0.447
glycan array binding signal (z-score) (Gal3S(b1-3)GalNAc): 0.317
glycan array binding signal (z-score) (Gal3S(b1-3)GlcNAc): -0.617
glycan array binding signal (z-score) [25]: -0.856
glycan array binding signal (z-score) (Gal3S(b1-4)Glc): -0.03
glycan array binding signal (z-score) (Gal3S(b1-4)Glc6S): 0.135
glycan array binding signal (z-score) (Gal3S(b1-4)GlcNAc): -0.415
glycan array binding signal (z-score) [26]: 0.415
glycan array binding signal (z-score) [27]: -0.56
glycan array binding signal (z-score) [28]: -0.377
glycan array binding signal (z-score) (Gal3S4S(b1-4)GlcNAc): -0.58
glycan array binding signal (z-score) (Gal3S6S(b1-4)GlcNAc): -0.233
